From paper PMC12431657, “Discovery and mechanistic insights of dibenzoylmethane as a broad spectrum inhibitor of coronavirus” (PLOS Pathogens, 2025)
Where a name gives a salt, the structure may show the parent alone. Read-outs that look alike come from different tables or passages of the source. In all, about 3,300 compounds went through this assay and about 95 (3%) showed an effect of 50% or more. The list shows a part of the results.

System: HCoV-229E
Set-up: species or system Huh-7; HTS, protection from HCoV-229E induced cell death, luminescent cell viability (CellCounting-Lite 2.0), inhibition rate
Conditions: 24 h post infection, 1 h compound pre-incubation, 10 µM, inhibitor

Structure (SMILES) | 229E Inhibition rate (229E Inhibition rate, 24 h) | 229E Inhibition rate
C[S+]([O-])CC[C@H](N)C(=O)O (stereo partly drawn) [L-Methionine sulfoxide] | 11.6% | 
C=C(C)[C@@H]1CC[C@]2(C=O)CC[C@]3(C)[C@H](CC[C@@H]4[C@@]5(C)CC[C@H](O)C(C)(C)[C@@H]5CC[C@]43C)[C@@H]12 [Betulinaldehyde] |  | 26.8%
Cc1ncc(COP(=O)(O)O)c(C=O)c1O [Pyridoxal 5'-phosphate (monohydrate)] | 28.9% | 
COc1cc2c(c(OC)c1OC)-c1c(cc3c(c1OC)OCO3)C[C@H](C)[C@H](C)C2 [Gomisin N] | 42.9% | 
O=C(O)CNC(=O)c1cccc(O)c1 [3-Hydroxyhippuric acid] |  | 19.6%
OCc1ccc(O[C@@H]2O[C@H](CO)[C@@H](O)[C@H](O)[C@H]2O)cc1 [Gastrodin] |  | 46.1%
N[C@H](Cc1ccccc1)C(=O)O [D-Phenylalanine] |  | 16.6%
CO[C@H]1[C@H](O)[C@H](O[C@H]2CC[C@@]3(C)[C@H](CC[C@@H]4[C@@H]3CC[C@]3(C)[C@@H](C5=CC(=O)OC5)CC[C@]43O)C2)O[C@@H](C)[C@@H]1O [Neriifolin] |  | 28.8%
O=c1c(-c2ccc(O)cc2)coc2cc(O)cc(O)c12 [Genistein] |  | 17.6%
CCOC(=O)/C=C/c1ccc(O)c(OC)c1 [Ethyl ferulate] |  | 18.3%
COc1cc(OC)c(C(=O)O)cc1OC [2,4,5-Trimethoxybenzoic acid] |  | 10.6%
COc1cc([C@@H]2c3cc4c(cc3[C@H](O)[C@H]3COC(=O)[C@H]23)OCO4)cc(OC)c1OC [Podofilox] |  | 36.4%
C=CCc1ccc(O)c(-c2ccc(O)c(CC=C)c2)c1 [Honokiol] |  | 45.8%
N[C@@H](CCS)C(=O)O [L-Homocysteine] |  | 12.1%
C/C1=C\C[C@]2(C(C)C)CC[C@@](C)(O2)[C@@H](O)CC/C(C)=C/CC1 [Incensole] |  | 23.8%
CC[C@@]1(O)C(=O)OCc2c1cc1n(c2=O)Cc2cc3cc(OC)ccc3nc2-1 [10-Methoxycamptothecin] |  | 7.1%
O=C(O[C@@H]1Cc2c(O)cc(O)cc2O[C@@H]1c1cc(O)c(O)c(O)c1)c1cc(O)c(O)c(O)c1 [(-)-Epigallocatechin Gallate] |  | 14.2%
C[C@@H]1O[C@@H](OC[C@H]2O[C@@H](Oc3c(-c4ccc(O)cc4)oc4cc(O)cc(O)c4c3=O)[C@H](O)[C@@H](O)[C@H]2O)[C@H](O)[C@H](O)[C@H]1O [Biorobin] |  | 8.3%
CC(C)(CO)[C@@H](O)C(=O)NCCCO [D-Panthenol] |  | 8%
C[C@@H]1O[C@@H](O[C@@H]2[C@@H](O)[C@H](OCCc3ccc(O)c(O)c3)O[C@H](CO)[C@H]2OC(=O)/C=C/c2ccc(O)c(O)c2)[C@H](O)[C@H](O)[C@H]1O [Verbascoside] |  | 11.8%
CCCCCCC/C=C/C(=O)CCc1ccc(O)c(OC)c1 [[8]-Shogaol] |  | 39.3%

3 entries from above in another layout:
N[C@H](Cc1ccccc1)C(=O)O [D-Phenylalanine]
  229E Inhibition rate: 16.6%
CCOC(=O)/C=C/c1ccc(O)c(OC)c1 [Ethyl ferulate]
  229E Inhibition rate: 18.3%
C[C@@H]1O[C@@H](O[C@@H]2[C@@H](O)[C@H](OCCc3ccc(O)c(O)c3)O[C@H](CO)[C@H]2OC(=O)/C=C/c2ccc(O)c(O)c2)[C@H](O)[C@H](O)[C@H]1O [Verbascoside]
  229E Inhibition rate: 11.8%

Carrying on.

Structure (SMILES) | 229E Inhibition rate (229E Inhibition rate, 24 h) | 229E Inhibition rate
CC1=C(C=O)C(C)(C)CC=C1 [Safranal] |  | 11.9%
COc1ccc(/C=C\c2cc(OC)c(OC)c(OC)c2)cc1OP(=O)(O)O [Fosbretabulin (disodium)] |  | 17.4%
O=c1c(O[C@@H]2O[C@H](CO)[C@H](O)[C@H](O)[C@H]2O[C@@H]2O[C@H](CO)[C@@H](O)[C@H](O)[C@H]2O)c(-c2ccc(O)cc2)oc2cc(O)cc(O)c12 [Panasenoside] |  | 23%
CC(C)=C1C/C=C(\C)CC/C=C(\C)CC1=O [Germacrone] |  | 21.9%
C=C[C@]1(C)C=C2CC[C@H]3[C@@](C)(CCC[C@@]3(C)C(=O)O)[C@@H]2CC1 [Continentalic acid] |  | 5.1%
COc1ccc(-c2oc3c(CC=C(C)C)c(O[C@@H]4O[C@H](CO)[C@@H](O)[C@H](O)[C@H]4O)cc(O)c3c(=O)c2O[C@@H]2O[C@@H](C)[C@H](O)[C@@H](O[C@@H]3O[C@H](CO)[C@@H](O)[C@H](O)[C@H]3O)[C@H]2O)cc1 [Epimedin A1] |  | 8.7%
CC(C)C[C@H](NC(=O)[C@@H](O)[C@H](N)Cc1ccccc1)C(=O)O [Bestatin (hydrochloride)] | 27.1% | 
CO[C@H]1C[C@@H]2CC[C@@H](C)[C@@](O)(O2)C(=O)C(=O)N2CCCC[C@H]2C(=O)O[C@H]([C@H](C)C[C@@H]2CC[C@@H](O)[C@H](OC)C2)CC(=O)[C@H](C)/C=C(\C)[C@@H](O)[C@@H](OC)C(=O)[C@H](C)C[C@H](C)/C=C/C=C/C=C/1C [Rapamycin] |  | 8.5%
CO[C@H]1/C=C/O[C@@]2(C)Oc3c(C)c(O)c4c(c3C2=O)C(=O)C=C(NC(=O)/C(C)=C\C=C\[C@H](C)[C@H](O)[C@@H](C)[C@@H](O)[C@@H](C)[C@H](OC(C)=O)[C@@H]1C)C4=O [Rifamycin S] |  | 9.2%
O=C(O)[C@H](O)[C@@H](O)CO [Calcium L-Threonate] |  | 7.8%
COc1cc(CCC(=O)CC(O)CCc2ccc(O)c(OC)c2)ccc1O (stereo not shown) [Hexahydrocurcumin] |  | 10.9%
COc1cc(-c2[o+]c3cc(O)cc(O)c3cc2O)cc(O)c1O [Petunidin (chloride)] |  | 13.2%
COc1cccc(OC)c1C(=O)O [2,6-Dimethoxybenzoic acid] |  | 48.8%
O=C1O[C@H]2[C@@H]3OC(=O)c4cc(O)c(O)c(O)c4-c4c(cc(O)c(O)c4O)C(=O)OC[C@H]2O[C@@H](OC(=O)c2cc(O)c(O)c(O)c2)[C@@H]3OC(=O)c2cc(O)c(O)c3c2[C@@H]2C1=CC(=O)[C@](O)(O3)C2(O)O [Geraniin] |  | 9.9%
C[C@@H]1CC[C@H]2[C@@H](C)C(=O)O[C@@H]3O[C@@]4(C)CC[C@@H]1[C@]32OO4 [Artemisinin] |  | 15.5%
O=C1C[C@@H](c2cc(O)c(O)c(O[C@@H]3O[C@H](CO)[C@@H](O)[C@H](O)[C@H]3O)c2)Oc2cc(O)cc(O)c21 [Plantagoside] |  | 11.2%
COc1ccc2cc3[n+](cc2c1OC)CCc1cc(O)c(O)cc1-3 [Demethyleneberberine] |  | 40.5%
CC(=O)c1cc(O)ccc1O [2,5-Dihydroxyacetophenone] |  | 11.4%
c1cncnc1 [Pyrimidine] |  | 21.9%
COc1ccc(/C=C/C(=O)O)cc1OC [3,4-Dimethoxycinnamic acid] | 26.8% | 
COc1ccc(/C=C/c2cc(OC)cc(=O)o2)cc1 [Yangonin] |  | 44%

Structure (SMILES) | 229E Inhibition rate (229E Inhibition rate, 24 h) | 229E Inhibition rate
C=C1CC[C@@H]2[C@](C)(CO)[C@H](O)CC[C@@]2(C)[C@@H]1/C=C/C1=CCOC1=O [14-Deoxy-11,12-didehydroandrographolide] |  | 40.5%
COc1cc(/C=C/C(=O)OC[C@H]2O[C@@H](O[C@@H]3[C@@H](O)[C@H](O)[C@@H](CO)O[C@H]3c3c(OC)cc4oc(-c5ccc(O)cc5)cc(=O)c4c3O)[C@H](O)[C@@H](O)[C@@H]2O)ccc1O [6‴-Feruloylspinosin] |  | 11.5%
COc1cc2c(=O)c(-c3ccc(O)cc3)coc2cc1O[C@@H]1O[C@H](CO)[C@@H](O)[C@H](O)[C@H]1O [Glycitin] |  | 11.5%
O=C1C=C2C=C[C@@H](O)[C@H](O)[C@H]2O1 [Griffonilide] |  | 12.9%
COc1cc(COC(=O)CCCC/C=C/C(C)C)ccc1O [Capsiate] |  | 9%
CNc1nc2c(ncn2[C@@H]2O[C@H](CO)[C@@H](O)[C@H]2O)c(=O)[nH]1 [N2-Methylguanosine] |  | 5.3%
Nc1nc2c([nH]c(=O)n2[C@H]2C[C@H](O)[C@@H](CO)O2)c(=O)[nH]1 [8-Hydroxy-2'-deoxyguanosine] |  | 7.8%
COc1cc(C=O)ccc1O [Vanillin] |  | 17.3%
CC(=O)OC[C@H](Cc1ccccc1)NC(=O)[C@H](Cc1ccccc1)NC(=O)c1ccccc1 [Aurantiamide acetate] |  | 0%
CO[C@@H]1[C@H](O)[C@@H](CO)O[C@H]1n1cnc2c(N)ncnc21 [2'-O-Methyladenosine] |  | 7.5%
CC1=CC(=O)CC(C)(C)C1=O [Ketoisophorone] |  | 22.3%
COc1cc2c(cc1O)CC[C@@H]1[C@@H]2CC[C@]2(C)[C@@H](O)CC[C@@H]12 [2-Methoxyestradiol] |  | 20.9%
COc1cc(-c2coc3cc(O[C@@H]4O[C@H](CO)[C@@H](O)[C@H](O)[C@H]4O)c(OC)c(O)c3c2=O)ccc1O [Iristectorin B] |  | 11.1%
CC(=O)O[C@H]1Cc2cc3c(cc2[C@H]2N(C)Cc4c(ccc5c4OCO5)[C@@]12C)OCO3 [Acetylcorynoline] |  | 14%
COc1cc([C@H]2OC[C@H]3[C@@H]2CO[C@H]3c2ccc(OC)c(OC)c2)ccc1O [Phillygenin] |  | 20.9%
Nc1ccc(O)c(C(=O)O)c1 [5-Aminosalicylic Acid] |  | 17.3%
Nc1ncnc(N[C@@H]2O[C@H](CO)[C@@H](O)[C@H]2O)c1[N+](=O)[O-] [Clitocine] |  | 17.5%
O=C(O)/C=C(/CC(=O)O)C(=O)O [(Z)-Aconitic acid] |  | 17.7%
CO[C@@H]1[C@@H](O[C@@H]2O[C@H](C)[C@@H](O[C@H]3C[C@@](C)(O)[C@@H](O)[C@H](C)O3)[C@H](N(C)C)[C@H]2O)[C@@H](CC=O)C[C@@H](C)[C@@H](O[C@H]2CC[C@H](N(C)C)[C@@H](C)O2)/C=C/C=C/C[C@@H](C)OC(=O)C[C@H]1O [Spiramycin I] |  | 7.6%
